## Assay results

Data taken from PubChem BioAssay AID1159506, deposited by NCATS (2015).

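Genome-wide siRNA knockdown in TC32 Ewing sarcoma cells, comparing luciferase light from an NR0B1-promoter reporter with a CMV-promoter reporter 48 hours after transfection.
Each siRNA was applied at 20 nM.
A z-score of the log NR0B1-over-CMV signal, less the median of siRNAs with the same seed; more negative means a stronger specific loss of the NR0B1 reporter.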

The strongest results of the screen are mostly left out here.
Sequences are the guide (antisense) strand, without overhang.

Sequence	gene	seed-corrected z-score
AAAUUGGUUACAUUCCUCU	PNPLA4	0.1389
UCCGGGAUCCAAAAUACCU	SEMA3B	-0.5067
UAACUUGUCCUCAUCCGUC	CEP97	0.2148
UGAGCAGUUUUUCUCGUCC	CORIN	-0.1414
UUUGUUGAUCAGGCUCUCC	NUP62	-1.434
AAUAGAUCCAGUCAGAUUC	DCAF17	-0.2442
ACAUCGAACACCUUGCCGU	PGRMC1	0.2721
UUCGAGUUGAGGCACAUUG	TPH2	0.06222
UUGUGGAUACUUGUACUGC	NPY2R	-0.2761
AUGGUUUUCAAAGCGUACU	HMX2	-0.6754
UUUAGAAUUCGGAAAAUCC	KCNS3	1.01
UCAUGAUGACGGAGUAUCG	OR2A1	0.654
AAAAGCAACAGUGUGGUUG	PLXNB2	-0.2226
UUUCCUCCCGGAUAGAUGU	PMF1	0.4192
UAAGGUGAAAGCACAGAGC	JTB	0.3844
UGCAUCACGAUAGAAUUCC	CHCHD7	-0.3285
AAUAGAUCCAAUCCAUUGC	UFSP2	-0.8299
UAUUUGAUAAGUGUCAUUA	PLGLB2	0.6752
UUGGUAGAAAAGUUUAGCU	METTL11B	1.088
UUUGUUGACUCCGUAAUUC	PITRM1	0.4961
UUCAUUGUCACAUCCUAUC	ING2	-0.04037
UGACAUAUUCGAGUUCUUC	ASNSD1	-0.2299
UCUUGGUCAGUUCAUACAC	SMAD9	-0.828
UCUCUUUGAACCUUGCACG	HPSE	-0.7501
UACGUUCAAAGGUUUCACG	WBP11	-0.4788
AUCUAUUUUAGUUCUCACA	SIGLEC15	0.06314
UCAGGGUGAACUUUGGUGG	LMNA	-1.368
UGAACCAUGAGUAUAAUAC	SGPP2	-0.4397
AUUGGACUCACGAUGCUGA	STEAP3	0.3327
UCAUAAAAAUCAACUUUCC	MS4A6E	0.6864
AAAGUAAGGCGCAUUGUCG	PCDHGA12	-0.06889
UAUGGUCAAAGAGACAUCC	HAVCR1	-0.4096
UGUUGAACAAGUGAGUCUU	ZNF772	0.287
UAUCUCCAUAGCAAGACUC	FANCI	0.3397
UUUCUCACAACUCCAGGCG	SSR4P1	1.584
UAAUUUACUCACGUCACAC	LINC00921	0.7377
UAUUAAAUCGAGAAUAUUC	PPP1R3D	0.06515
UCUUCUACUAGAUGAGAGG	MYB	-1.182
AUCAUUCCAAUCAAUGAUU	ORAOV1	0.06404
UGACUUUUGAGUAGGUCCC	TSSK3	1.052
UAGUCAAAAACCUCACGCC	NFE2L1	0.5732
AAACUUGAAGUUAUUGCUG	RAP1GAP	0.7549
UCAGGGCUAAGUUGGAGGG	RAB33A	-0.416
UCAUGGUAGGGUGAGAUGG	FICD	0.2641
UUUUGCAGGAGGUUUAGCU	HMGN1P38	-1.835
UCCUUUACCAGACCUAGUG	ZFYVE1	-0.8019
UUAUCAGGAGCUUGUAUUC	PSG2	-0.0392
AAGGCUUUAAGAUUUCGAC	DCLRE1C	0.7201
UAUUCGGUCAUGUAGACCC	ANO3	0.1505
UAUCUGAUAACUCCGGUUG	CCNJ	-0.06941
UUCUUCAUCGCAGCACUCC	CCDC81	0.6572
UCCAGGUCCACGUCACUUC	ELF3	-0.4916
UCUCUGAUAAUUGGGCACG	CARD10	-0.3771
UAUGCAGCAUUGUCCCUCC	SIGLEC6	-0.5993
UAAAAUGACAUUACGAAGG	WBP2P1	0.8472
UCAGGUAGCAGGACCAGGA	TMEM204	1.223
UACUUCUCAUCGAAGAGCC	C19orf52	-0.2159
AUAGUUUGUGGUUGAGGCC	NDRG4	-0.08357
UUCAUUUUCGUAAAAAUGC	LINC01011	0.1487
AUGUUUCAUAUACCAAUCC	LOC648934	-0.9348
UCCAUGAUUAGGGACCUGG	NOXA1	-0.6098
UGCGGACGAAGAUUCUGCC	GDF15	0.6455
AAAUUUCACAUCUAGACGU	ATP6V0E2	-1.734
UUUGUUGCAGCCCACAUCG	PURB	-0.4241
UUCCUCCAAGGGAACAUCC	GRAMD2	0.1676
AACCUUUCGGAUAAAAGUG	TMBIM1	1.853
UUCGGGUUUGUCUUGAUUC	TTN	0.7557
AUACUGGAGGUUAUUCUGC	SLC35A2	-1.309
AUACUGAUCUGACAUAGGC	AP3D1	-0.7148
UCAGAGCCCACUUAUUCCA	ADM	-0.6374
UGAUGUCCUUGCACCGUGC	RNH1	0.4246
UCCGUUACAGCACUAGAUG	RNF111	0.3165
UUGAGGUCUAUAUCUGGAG	TRIM22	-0.4233
UCCACAAACAGGUAUGCGC	TRADD	0.0791
UAAUCGUCUUUAUAGGUUG	SAXO2	0.1399
UAAUAGACCCUCGUCAUGU	RAB38	-0.05451
UUUCUCAUAAGCCCUUUUC	GXYLT2	-1.811
UCCAUGGUAACAUAUAAGC	COG4	-0.08204
UUUGUGAAUCAAGAUGAAC	NOC4L	0.2351
UCCUGCACCAUGCUAGUCC	LYG1	0.1317
UCAUAUUCAGUGCAUAUUC	ZNF484	1.557
UCCGUUGGUAUUUCAGAGC	IGSF9B	-1.711

7 of the entries, repeated:

Sequence	gene	seed-corrected z-score
UAUGGUCAAAGAGACAUCC	HAVCR1	-0.4096
UACUUCUCAUCGAAGAGCC	C19orf52	-0.2159
UUUCUCACAACUCCAGGCG	SSR4P1	1.584
UCAGGGUGAACUUUGGUGG	LMNA	-1.368
UUCUUCAUCGCAGCACUCC	CCDC81	0.6572
UCAGGUAGCAGGACCAGGA	TMEM204	1.223
UCUUGGUCAGUUCAUACAC	SMAD9	-0.828